# Data: PubChem BioAssay AID504467 (National Center for Advancing Translational Sciences (NCATS), 2011)
# Screen size: about 330,000 compounds; about 7,700 (2.3%) were called active. The shares of active, inactive and inconclusive entries below differ from those in the screen. The call rests on the fitted dose curve; in most records, active means well fitted inhibition curve with a large enough effect; inconclusive means small, poorly fitted or top-dose-only effect, or effect the other way; inactive means flat fitted curve, though single readings scatter. Where the call is inconclusive, the potency comes from a doubtful curve fit.
# Test: qHTS screen for small molecules that inhibit ELG1-dependent DNA repair in human embryonic kidney (HEK293T) cells expressing luciferase-tagged ELG1; further: nearly all actives have a fitted effect of over 55% in size
# Conditions: HEK293T ELG1-luciferase reporter, luminescence, 16 h, DNA damage induced by 5-fluorouridine; activity change, negative = inhibition: at 46.1 µM (top of the series)
# In short: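 5-Fluorouridine DNA damage + compound/DMSO, 2,000 cells/well, 16 h, 37 °C/5% CO2. ONE-Glo, 30 min RT, luminescence. Readout = decrease in reporter signal.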
# On the % scale 0 is the no-effect control and ±100 the full control effect; potency means the concentration at half of the fitted maximal effect.
SMILES,Potency,"activity change, negative = inhibition"
O=C(NCCCn1ccnc1)c1cccc(S(=O)(=O)N2CCCCCC2)c1,"inconclusive: 25.9 µM [inhibitor, partial curve]",
CC(=O)C(Sc1ncnc2sc3c(c12)CCCC3)C(C)=O,"inconclusive: 25.9 µM [inhibitor, single point]",
Cc1ccc(Sc2ncccc2C(=O)NCC(c2ccc(F)cc2)N2CCOCC2)c(C)c1 (stereo unspecified),"inconclusive: 18.3 µM [inhibitor, single point]",
O=C(CCl)Nc1ccccc1C(=O)NCc1ccccc1,"inconclusive: 20.6 µM [inhibitor, single point]",
COc1ccc(N2CCN(C(=O)CSc3nnc(COc4cccc5cccnc45)o3)CC2)cc1,"inconclusive: 11.6 µM [inhibitor, partial curve]",
CCC(C)NC(=O)C1CCN(C(=O)COc2ccc3c4c(c(=O)oc3c2C)CCCC4)CC1 (stereo unspecified),"inconclusive: 2.31 µM [inhibitor, partial curve]",
Cc1ccc(NC(=O)CN(C)C(C)C(=O)Nc2ccc(S(=O)(=O)N3CCCC3)cc2)cc1 (stereo unspecified),"inconclusive: 3.66 µM [inhibitor, single point]",
Cc1ccc(NC(=O)C(C)Sc2nnc(C3CC3)n2C2CC2)cc1S(=O)(=O)N1CCOCC1 (stereo unspecified),"inconclusive: 5.17 µM [inhibitor, full curve]",
N#CCCN(C(=O)c1cc2c(s1)-c1ccccc1S(=O)(=O)C2)c1ccccc1,"inconclusive: 18.3 µM [inhibitor, single point]",
O=C(Cc1ccc(NC2=NC3CS(=O)(=O)CC3S2)cc1)NCCc1ccccc1 (stereo unspecified),,inactive: 5.24%
COc1cc(-c2[nH]ncc2CN2CCSCC2)cc(OC)c1OC,"inconclusive: 18.3 µM [activator, partial curve, poor fit]",
CC(C)Cc1csc(NC(=O)c2ccc(Cl)cc2)c1C(=O)O,"inconclusive: 18.4 µM [activator, single point]",
COCc1cc(C)nc(SCC(=O)Oc2ccc(Cl)cc2)c1C#N,"inconclusive: 29.1 µM [activator, single point]",
Nn1c(N2CCCCC2)nc2ccccc21,"inconclusive: 20.6 µM [activator, partial curve, poor fit]",
COc1ccc(N(C(=O)c2ccncc2)S(=O)(=O)c2ccc3c4c(cccc24)C(=O)N3C)cc1,,inactive: -6.78%
C=CCNC(=O)c1cc(-c2ccc(Br)cc2)on1,"inconclusive: 5.8 µM [activator, partial curve]",
COc1ccc(Oc2nc(-c3ccccn3)nc3ccccc23)cc1,active: 9.2 µM,
O=C1Nc2ccc([N+](=O)[O-])cc2OC1CCN1CCN(Cc2ccc3c(c2)OCO3)CC1 (stereo unspecified),,inactive: -25.4%
CC(C)C[C@H](N)C(=O)N1CCC(C(=O)N[C@H](C(=O)NCc2ccc(F)cc2)C(C)C)CC1,"inconclusive: 0.0046 µM [activator, full curve, poor fit]",
CC1CCCCC1NS(=O)(=O)c1ccc2c(c1)CC(=O)N2C (stereo unspecified),"inconclusive: 20.6 µM [activator, single point]",
COc1ccc(C(=O)N/N=C/c2sc(N3CCOCC3)nc2-c2ccccc2)cc1OC,"inconclusive: 16.4 µM [inhibitor, single point]",
O=C(CCSc1nc2ccccc2o1)N1CCOCC1,"inconclusive: 18.4 µM [activator, partial curve]",

SMILES,Potency,"activity change, negative = inhibition"
COC(CNC(=O)c1ccc2c(c1)ncn2-c1ccc(C)cc1C)OC,,inactive: 0.737%
O=C(Oc1ccc2c3c(c(=O)oc2c1)CCCC3)c1ccco1,,inactive: -0.626%
COc1ccc(OC)c(CNc2ccc3c(c2)CCC3)c1,"inconclusive: 20.6 µM [activator, single point]",
O=C(CCCn1c(SCC(=O)c2ccc(F)cc2)nc2ccccc2c1=O)NCc1ccccc1,"inconclusive: 14.6 µM [inhibitor, partial curve]",
C=CCNC(=S)Nc1sc2c(c1C(=O)OCC)CC(C(C)C)OC2 (stereo unspecified),"inconclusive: 9.2 µM [inhibitor, partial curve, poor fit]",
O=C(NCCCN1CCOCC1)c1ccccc1N1C(=O)[C@@H]2Cc3c([nH]c4ccccc34)C(c3ccc(F)cc3)N2C1=O (stereo partly specified),"inconclusive: 29.1 µM [inhibitor, single point]",
COc1ccccc1Nc1n[nH]c(=S)s1,"inconclusive: 2.31 µM [activator, partial curve]",
COC(=O)C(NC(=O)CN1C(=O)c2ccccc2C1=O)c1ccc(O)c(OC)c1 (stereo unspecified),,inactive: 4.18%
COc1ccc(-c2c(C)c3ccc(OCC(C)=O)cc3oc2=O)cc1,"inconclusive: 29.1 µM [inhibitor, single point]",
O=C(Nc1ccc(Br)cc1F)c1ccc2c(c1)N(Cc1ccccc1)C(=O)CS2=O (stereo unspecified),,inactive: -7.92%
O=C(Nc1ccc2c(c1)OCCO2)c1ccc2nccnc2c1,"inconclusive: 2.31 µM [activator, partial curve]",
O=C(COc1ccccc1Br)NC1CC1,"inconclusive: 20.6 µM [activator, partial curve]",
CC1CCCC(NC(=O)Cn2cc(Br)ccc2=O)C1C (stereo unspecified),,inactive: 19.7%
Cc1ccc(SCC(=O)NC(=O)NC2CCCC2)c(C)c1,,inactive: -2.35%
COc1cccc(C(=O)N/N=c2\sc3ccccc3n2C)c1,"inconclusive: 23.1 µM [activator, single point]",
CCOc1ccc(C(C(=O)NC2CCCCC2)N(CCOC)C(=O)c2snc(C(N)=O)c2N)cc1 (stereo unspecified),,inactive: -0.0428%
CC(C)c1nc2ccc(Br)cn2c1NC1CCCC1,"inconclusive: 14.6 µM [inhibitor, partial curve]",
N#Cc1ccccc1NC(=O)C(=O)NCC1CCCN1S(=O)(=O)c1cccs1 (stereo unspecified),"inconclusive: 5.17 µM [inhibitor, partial curve, poor fit]",
COc1ccc(C2=NN(C(=O)c3ccco3)C(c3cc4ccccc4nc3Cl)C2)cc1 (stereo unspecified),,inactive: 8.42%
COC1CCN(C(=O)C2CCC(=O)N(CCc3cccc(F)c3)C2)CC1 (stereo unspecified),"inconclusive: 8.2 µM [activator, partial curve, poor fit]",
Cc1ccc(C(=O)NC(Cc2cccc(F)c2)C(=O)O)cc1 (stereo unspecified),"inconclusive: 18.3 µM [activator, single point]",
CCn1c(SCC(=O)NCc2ccco2)nnc1-c1ccncc1,,inactive: 1.98%

SMILES,Potency,"activity change, negative = inhibition"
CCC1CCc2c(sc(NC(=O)CSc3nc(-c4ccco4)cc(C(F)(F)F)n3)c2C#N)C1 (stereo unspecified),"inconclusive: 3.26 µM [inhibitor, partial curve, poor fit]",
O=C(Nc1nc2cc3c(cc2s1)OCCO3)C1=COCCO1,"inconclusive: 0.0058 µM [activator, full curve, poor fit]",
CC(=O)N1N=C(N)SC1(C)C,,inactive: 9.44%
CNC(=S)N/N=C/c1ccco1,"inconclusive: 29.1 µM [inhibitor, single point]",
COc1cc(-c2nnc(SCC(=O)c3cc(C)n(CC4CCCO4)c3C)o2)cc(OC)c1OC (stereo unspecified),"inconclusive: 7.94 µM [inhibitor, partial curve, poor fit]",
CN(C)S(=O)(=O)c1ccc(Cl)c(NC(=O)COC(=O)/C=C/c2ccc3ccccc3n2)c1,,inactive: -9.98%
COC(=O)c1sc2nc(C)cc(C)c2c1N,"inconclusive: 13 µM [activator, partial curve]",
Cc1c(C(=O)Nc2ccc(OC(F)(F)F)cc2)sc2nc3n(c(=O)c12)CCC3,"inconclusive: 23.1 µM [inhibitor, partial curve]",
O=C(NCCc1ccc(Cl)cc1)C1CCC(CNc2c(N3CCCCC3)c(=O)c2=O)CC1 (stereo unspecified),"inconclusive: 20.6 µM [inhibitor, single point]",
O=C(Oc1ccccc1/C=C\C(=O)c1cc2ccccc2o1)c1ccccc1,"inconclusive: 7.31 µM [activator, partial curve]",
COc1ccc(/C=N/Nc2nc(-c3ccc(Cl)cc3)cc(C(F)(F)F)n2)c(OC)c1,"inconclusive: 29.1 µM [activator, single point]",
CCCCCN=Cc1c(C)[nH]n(-c2nc3ccccc3s2)c1=O,"inconclusive: 2.59 µM [activator, partial curve]",
COc1ccc(NC(=O)CSc2nnnn2C)cc1S(=O)(=O)N1CCCCC1,,inactive: 8.33%
O=C1NN(c2cccc(Br)c2)C(=O)/C1=C\c1ccc(O)cc1,,inactive: 11.8%
COc1nn(-c2nc(-c3ccccc3)cc(C(F)(F)F)n2)cc1[N+](=O)[O-],"inconclusive: 29.1 µM [inhibitor, single point]",
CCc1ccc2[nH]c(=O)c(C(c3nnnn3CCOC)N3CCN(c4ccc(F)cc4)CC3)cc2c1 (stereo unspecified),"inconclusive: 10.3 µM [inhibitor, single point]",
COc1cccc(CN(C)CC(=O)Nc2ccccc2C(=O)Nc2ccccc2)c1OC,"inconclusive: 23.1 µM [inhibitor, single point]",
COC(=O)Cc1ccc(NC(=S)N2CCN(c3ccccn3)CC2)cc1,"inconclusive: 16.4 µM [inhibitor, single point]",
Cc1c(C(=O)NCCN2CCOC2=O)oc2c(F)cccc12,"inconclusive: 18.3 µM [activator, partial curve]",
O=C(CSc1nnc(NC(=O)c2ccc(F)cc2F)s1)NC1CCCC1,"inconclusive: 20.6 µM [activator, partial curve]",
Cc1ccccc1Nc1nc(-c2cccnc2)cs1,"inconclusive: 2.59 µM [activator, partial curve]",
CCN(CC(=O)NCc1ccc(F)cc1)CC(=O)Nc1cc(S(=O)(=O)N(C)C)ccc1C,"inconclusive: 18.3 µM [inhibitor, single point]",

# Exported with tabs: entries from further up
SMILES	Potency	activity change, negative = inhibition
C=CCNC(=S)Nc1sc2c(c1C(=O)OCC)CC(C(C)C)OC2 (stereo unspecified)	inconclusive: 9.2 µM [inhibitor, partial curve, poor fit]	
O=C(NCCCN1CCOCC1)c1ccccc1N1C(=O)[C@@H]2Cc3c([nH]c4ccccc34)C(c3ccc(F)cc3)N2C1=O (stereo partly specified)	inconclusive: 29.1 µM [inhibitor, single point]	
COc1ccccc1Nc1n[nH]c(=S)s1	inconclusive: 2.31 µM [activator, partial curve]	
COC(=O)C(NC(=O)CN1C(=O)c2ccccc2C1=O)c1ccc(O)c(OC)c1 (stereo unspecified)		inactive: 4.18%
COc1ccc(-c2c(C)c3ccc(OCC(C)=O)cc3oc2=O)cc1	inconclusive: 29.1 µM [inhibitor, single point]	
